± gives the standard deviation of the averaged measurements. The list shows a part of the results, in another mix than the full data.
Compound: Nc1ncnc2c1ncn2[C@@H]1O[C@H](COP(=O)(O)OP(=O)(O)OP(=O)(O)O)[C@@H](O)[C@H]1O [adenosine triphosphate]
Assay: NP40-soluble protein abundance relative to vehicle (solubility fold change) (ratio); higher = more soluble protein in presence of ATP
Procedure, shortened: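 Data come from three independent experiments in which Dounce-homogenised Jurkat crude lysate was treated at eight concentrations from 0.1 to 10 mM. Treatment ran 10 min at room temperature and then 3 min at 37 °C, after which 0.8% NP40 and benzonase were added for 60 min at 4 °C before ultracentrifugation. The supernatant underwent TMT labelling and LC-MS/MS, and vsn-normalised intensities were expressed as fold change against the detergent-processed vehicle in each replicate.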

Amino acid sequences for entries named in this document (tags omitted). A change or cut given only in a name is not applied to a line headed by its entry.
UniProt P04844: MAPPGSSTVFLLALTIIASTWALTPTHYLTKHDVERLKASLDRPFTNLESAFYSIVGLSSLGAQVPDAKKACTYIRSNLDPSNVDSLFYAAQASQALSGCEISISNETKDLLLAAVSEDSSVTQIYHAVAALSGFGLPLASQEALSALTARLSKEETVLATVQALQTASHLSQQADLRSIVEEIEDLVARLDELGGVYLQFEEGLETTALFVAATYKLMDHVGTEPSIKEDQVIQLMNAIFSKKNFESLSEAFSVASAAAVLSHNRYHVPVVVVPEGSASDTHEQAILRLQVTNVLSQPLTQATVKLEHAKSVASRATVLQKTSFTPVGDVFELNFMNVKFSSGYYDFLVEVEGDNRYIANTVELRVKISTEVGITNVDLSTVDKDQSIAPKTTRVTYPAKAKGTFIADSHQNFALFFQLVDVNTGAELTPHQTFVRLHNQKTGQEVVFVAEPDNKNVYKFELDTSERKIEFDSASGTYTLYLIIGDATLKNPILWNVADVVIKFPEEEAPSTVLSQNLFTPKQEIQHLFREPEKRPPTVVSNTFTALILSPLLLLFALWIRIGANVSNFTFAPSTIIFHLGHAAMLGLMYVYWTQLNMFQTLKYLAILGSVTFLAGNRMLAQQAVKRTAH
UniProt H0UI80: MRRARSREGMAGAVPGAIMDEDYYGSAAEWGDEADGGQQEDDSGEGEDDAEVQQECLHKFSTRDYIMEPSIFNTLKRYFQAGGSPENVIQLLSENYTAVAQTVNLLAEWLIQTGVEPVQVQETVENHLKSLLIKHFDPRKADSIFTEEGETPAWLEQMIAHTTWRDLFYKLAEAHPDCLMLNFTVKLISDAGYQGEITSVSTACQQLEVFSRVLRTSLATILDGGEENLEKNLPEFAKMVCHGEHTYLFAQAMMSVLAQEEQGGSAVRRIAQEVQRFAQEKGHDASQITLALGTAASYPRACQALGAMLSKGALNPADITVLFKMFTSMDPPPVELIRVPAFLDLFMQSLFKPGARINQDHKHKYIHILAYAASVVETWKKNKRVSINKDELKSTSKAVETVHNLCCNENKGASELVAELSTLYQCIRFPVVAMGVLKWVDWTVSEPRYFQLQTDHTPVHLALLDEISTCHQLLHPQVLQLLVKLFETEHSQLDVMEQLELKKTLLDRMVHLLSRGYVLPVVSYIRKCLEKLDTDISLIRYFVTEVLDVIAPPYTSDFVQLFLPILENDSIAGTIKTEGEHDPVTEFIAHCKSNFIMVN
UniProt Q8IXH7, whole entry, looked up: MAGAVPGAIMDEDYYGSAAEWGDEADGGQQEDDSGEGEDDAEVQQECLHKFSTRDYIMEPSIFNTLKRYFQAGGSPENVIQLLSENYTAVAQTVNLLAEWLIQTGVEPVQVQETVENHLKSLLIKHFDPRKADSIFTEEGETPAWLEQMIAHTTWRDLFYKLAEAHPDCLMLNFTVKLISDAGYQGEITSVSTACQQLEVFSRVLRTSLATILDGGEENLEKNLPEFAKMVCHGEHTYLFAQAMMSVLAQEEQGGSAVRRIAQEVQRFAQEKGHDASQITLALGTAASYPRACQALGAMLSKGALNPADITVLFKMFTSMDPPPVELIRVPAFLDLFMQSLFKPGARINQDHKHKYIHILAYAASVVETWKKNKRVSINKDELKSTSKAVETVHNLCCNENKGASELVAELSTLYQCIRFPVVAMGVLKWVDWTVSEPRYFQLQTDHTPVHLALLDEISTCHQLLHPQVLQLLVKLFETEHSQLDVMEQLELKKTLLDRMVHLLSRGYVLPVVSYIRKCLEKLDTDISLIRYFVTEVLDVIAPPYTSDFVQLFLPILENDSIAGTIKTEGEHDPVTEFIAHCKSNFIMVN
UniProt Q9BUR5: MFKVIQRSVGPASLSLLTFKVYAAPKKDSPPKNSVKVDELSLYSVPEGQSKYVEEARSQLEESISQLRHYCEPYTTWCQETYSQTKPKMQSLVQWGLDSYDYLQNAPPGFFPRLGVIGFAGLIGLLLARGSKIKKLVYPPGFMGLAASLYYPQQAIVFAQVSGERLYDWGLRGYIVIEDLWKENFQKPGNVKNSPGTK
UniProt Q9BVL2: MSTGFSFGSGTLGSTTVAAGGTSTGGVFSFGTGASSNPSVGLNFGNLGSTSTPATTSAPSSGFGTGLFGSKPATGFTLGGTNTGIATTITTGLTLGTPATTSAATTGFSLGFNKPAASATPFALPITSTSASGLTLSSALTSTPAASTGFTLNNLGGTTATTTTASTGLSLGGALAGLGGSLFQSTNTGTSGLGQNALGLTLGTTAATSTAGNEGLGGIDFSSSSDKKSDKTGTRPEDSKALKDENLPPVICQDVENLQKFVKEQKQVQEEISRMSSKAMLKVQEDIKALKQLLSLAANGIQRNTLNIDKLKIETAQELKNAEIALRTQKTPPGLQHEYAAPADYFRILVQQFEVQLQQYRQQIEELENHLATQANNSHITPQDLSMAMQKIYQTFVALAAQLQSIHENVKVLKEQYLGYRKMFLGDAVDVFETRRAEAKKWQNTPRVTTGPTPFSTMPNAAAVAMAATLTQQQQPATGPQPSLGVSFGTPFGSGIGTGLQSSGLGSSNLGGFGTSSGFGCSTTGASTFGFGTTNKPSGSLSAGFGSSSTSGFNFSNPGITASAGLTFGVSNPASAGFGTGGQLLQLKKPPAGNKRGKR
UniProt P15735: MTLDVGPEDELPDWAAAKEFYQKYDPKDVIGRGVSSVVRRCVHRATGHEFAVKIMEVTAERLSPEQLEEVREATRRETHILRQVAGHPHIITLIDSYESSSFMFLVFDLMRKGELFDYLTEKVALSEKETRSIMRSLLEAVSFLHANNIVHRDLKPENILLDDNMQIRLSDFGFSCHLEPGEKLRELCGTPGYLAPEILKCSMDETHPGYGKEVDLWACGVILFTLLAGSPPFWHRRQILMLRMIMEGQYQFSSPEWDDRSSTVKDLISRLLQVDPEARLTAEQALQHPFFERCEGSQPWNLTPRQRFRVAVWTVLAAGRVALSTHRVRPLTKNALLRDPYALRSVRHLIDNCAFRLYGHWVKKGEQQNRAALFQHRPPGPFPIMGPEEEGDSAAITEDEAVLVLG
UniProt P02686, whole entry: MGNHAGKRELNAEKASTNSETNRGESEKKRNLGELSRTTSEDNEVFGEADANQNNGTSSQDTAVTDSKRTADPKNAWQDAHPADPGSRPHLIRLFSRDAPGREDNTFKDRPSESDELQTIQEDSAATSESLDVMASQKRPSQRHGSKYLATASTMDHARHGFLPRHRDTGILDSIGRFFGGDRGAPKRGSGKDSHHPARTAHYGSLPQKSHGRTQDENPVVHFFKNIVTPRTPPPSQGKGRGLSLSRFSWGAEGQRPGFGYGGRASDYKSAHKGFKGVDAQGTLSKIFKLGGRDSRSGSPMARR

Target: H0Y5M1 and related entries (UniProt P04844)
- NP40-soluble protein abundance (concentration: 1mM): 1.05 ± 0.11
- NP40-soluble protein abundance (concentration: 2mM): 1.01 ± 0.088
- NP40-soluble protein abundance (concentration: 4mM): 0.977 ± 0.077
- NP40-soluble protein abundance (concentration: 6mM): 0.978 ± 0.098
- NP40-soluble protein abundance (concentration: 8mM): 0.996 ± 0.068
- NP40-soluble protein abundance (concentration: 10mM): 0.982 ± 0.054

Target: H0UI80 and related entries (UniProt X6RLT1+Q8IXH7+H0UI80)
- NP40-soluble protein abundance (concentration: 1mM): 0.964 ± 0.045
- NP40-soluble protein abundance (concentration: 2mM): 0.984 ± 0.033
- NP40-soluble protein abundance (concentration: 4mM): 0.94 ± 0.061
- NP40-soluble protein abundance (concentration: 6mM): 0.968 ± 0.064
- NP40-soluble protein abundance (concentration: 8mM): 0.93 ± 0.053
- NP40-soluble protein abundance (concentration: 10mM): 0.932 ± 0.037

Target: H7C1U8 and related entries (UniProt Q9BUR5)
- NP40-soluble protein abundance (concentration: 1mM): 0.934 ± 0.032
- NP40-soluble protein abundance (concentration: 2mM): 0.944 ± 0.017
- NP40-soluble protein abundance (concentration: 4mM): 0.92 ± 0.018
- NP40-soluble protein abundance (concentration: 6mM): 0.93 ± 0.028
- NP40-soluble protein abundance (concentration: 8mM): 0.908 ± 0.013
- NP40-soluble protein abundance (concentration: 10mM): 0.877 ± 0.046

Target: H7BYF2 and related entries (UniProt Q9BVL2)
- NP40-soluble protein abundance (concentration: 1mM): 0.915 ± 0.084
- NP40-soluble protein abundance (concentration: 2mM): 0.94 ± 0.018
- NP40-soluble protein abundance (concentration: 4mM): 0.955 ± 0.057
- NP40-soluble protein abundance (concentration: 6mM): 1.01 ± 0.073
- NP40-soluble protein abundance (concentration: 8mM): 0.932 ± 0.058
- NP40-soluble protein abundance (concentration: 10mM): 0.933 ± 0.025

Target: J3KNN3 and related entries (UniProt P15735)
- NP40-soluble protein abundance (concentration: 1mM): 1.02 ± 0.1
- NP40-soluble protein abundance (concentration: 2mM): 0.941 ± 0.084
- NP40-soluble protein abundance (concentration: 4mM): 0.991 ± 0.053
- NP40-soluble protein abundance (concentration: 6mM): 0.886 ± 0.087
- NP40-soluble protein abundance (concentration: 8mM): 0.98 ± 0.13
- NP40-soluble protein abundance (concentration: 10mM): 0.923 ± 0.12

Target: J3QQK6 and related entries (UniProt P02686)
- NP40-soluble protein abundance (concentration: 1mM): 0.772 ± 0.07
- NP40-soluble protein abundance (concentration: 2mM): 0.771 ± 0.027
- NP40-soluble protein abundance (concentration: 4mM): 0.746 ± 0.058
- NP40-soluble protein abundance (concentration: 6mM): 0.731 ± 0.049
- NP40-soluble protein abundance (concentration: 8mM): 0.686 ± 0.025
- NP40-soluble protein abundance (concentration: 10mM): 0.668 ± 0.078

From the supplement of paper PMC6411743
